PubChem BioAssay AID1159584 | Peter MacCallum Cancer Centre – 2016
Purpose: 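Knock-downs that harm CDH1-null cells more than parental MCF10A cells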 (primary screen). System: human MCF10A breast epithelial cells, parental and CDH1-null. Reagents: siRNA against human genes. Read-out: 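ATP luminescence (CellTiter-Glo) viability per line relative to mean mock wells over all plates, and the ratio of CDH1-null to parental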. Reading the numbers: CDH1-null / parental viability ratio: higher = CDH1-null cells survive relatively better than parental.
The whole screen tested about 18,000 reagents; shown is a part drawn at random. Not all columns of the deposit are shown. The record does not give: the amount of reagent, the time to read-out.

{"target": "HOMER2 (homer scaffold protein 2)", "CDH1-null / parental viability ratio": 0.95}
{"target": "SEMA3B (semaphorin 3B)", "CDH1-null / parental viability ratio": 1.08}
{"target": "APEH (acylaminoacyl-peptide hydrolase)", "CDH1-null / parental viability ratio": 1.09}
{"target": "ATP5PD (ATP synthase peripheral stalk subunit d)", "CDH1-null / parental viability ratio": 0.95}
{"target": "CRYM (crystallin mu)", "CDH1-null / parental viability ratio": 0.95}
{"target": "ZNF584 (zinc finger protein 584)", "CDH1-null / parental viability ratio": 1.04}
{"target": "DIRAS2 (DIRAS family GTPase 2)", "CDH1-null / parental viability ratio": 1.16}
{"target": "WWC2 (WW and C2 domain containing 2)", "CDH1-null / parental viability ratio": 0.81}
{"target": "IQCH (IQ motif containing H)", "CDH1-null / parental viability ratio": 0.76}
{"target": "COLGALT2 (collagen beta(1-O)galactosyltransferase 2)", "CDH1-null / parental viability ratio": 0.82}
{"target": "ZNF714 (zinc finger protein 714)", "CDH1-null / parental viability ratio": 1.24}
{"target": "ADGRG7 (adhesion G protein-coupled receptor G7)", "CDH1-null / parental viability ratio": 0.73}
{"target": "RPAP2 (RNA polymerase II associated protein 2)", "CDH1-null / parental viability ratio": 1.24}
{"target": "ZBTB16 (zinc finger and BTB domain containing 16)", "CDH1-null / parental viability ratio": 1}
{"target": "SORBS1 (sorbin and SH3 domain containing 1)", "CDH1-null / parental viability ratio": 1.12}
{"target": "PRKAR2B", "CDH1-null / parental viability ratio": 0.9}
{"target": "SLC2A13", "CDH1-null / parental viability ratio": 0.76}
{"target": "PLEKHS1 (pleckstrin homology domain containing S1)", "CDH1-null / parental viability ratio": 1.23}
{"target": "C1QTNF2 (C1q and TNF related 2)", "CDH1-null / parental viability ratio": 0.96}
{"target": "TEX15 (testis expressed 15, meiosis and synapsis associated)", "CDH1-null / parental viability ratio": 1.22}
{"target": "ATP5F1A (ATP synthase F1 subunit alpha)", "CDH1-null / parental viability ratio": 0.82}
{"target": "CT55 (cancer/testis antigen 55)", "CDH1-null / parental viability ratio": 0.85}
{"target": "TOMM22 (translocase of outer mitochondrial membrane 22)", "CDH1-null / parental viability ratio": 1.21}
{"target": "RASEF (RAS and EF-hand domain containing)", "CDH1-null / parental viability ratio": 0.96}
